Experimental data reported in the supplement of paper PMC12823440, “Inhibitors supercharge kinase turnover through native proteolytic circuits” (Nature, 2025).
Counter-ions that a name gives are not always drawn. This is one part of the list. The calls rarely recur for the same compound in another form.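 In K562 cells expressing nanoluciferase-fused kinases, luminescence was recorded at 4 h intervals between 2 and 18 h, normalized as percent of control with DMSO at 100% and a positive control at 0%. A significant (2 sigma) signal drop marks a time point as decreased. The authors' rule for a hit is not shown and takes in more than the number of time points.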

Chains of the proteins cited; added tags and fusions are not shown. Lines headed by an entry give the natural chain unless they say otherwise; changes in a name come on top.
UniProt O75460: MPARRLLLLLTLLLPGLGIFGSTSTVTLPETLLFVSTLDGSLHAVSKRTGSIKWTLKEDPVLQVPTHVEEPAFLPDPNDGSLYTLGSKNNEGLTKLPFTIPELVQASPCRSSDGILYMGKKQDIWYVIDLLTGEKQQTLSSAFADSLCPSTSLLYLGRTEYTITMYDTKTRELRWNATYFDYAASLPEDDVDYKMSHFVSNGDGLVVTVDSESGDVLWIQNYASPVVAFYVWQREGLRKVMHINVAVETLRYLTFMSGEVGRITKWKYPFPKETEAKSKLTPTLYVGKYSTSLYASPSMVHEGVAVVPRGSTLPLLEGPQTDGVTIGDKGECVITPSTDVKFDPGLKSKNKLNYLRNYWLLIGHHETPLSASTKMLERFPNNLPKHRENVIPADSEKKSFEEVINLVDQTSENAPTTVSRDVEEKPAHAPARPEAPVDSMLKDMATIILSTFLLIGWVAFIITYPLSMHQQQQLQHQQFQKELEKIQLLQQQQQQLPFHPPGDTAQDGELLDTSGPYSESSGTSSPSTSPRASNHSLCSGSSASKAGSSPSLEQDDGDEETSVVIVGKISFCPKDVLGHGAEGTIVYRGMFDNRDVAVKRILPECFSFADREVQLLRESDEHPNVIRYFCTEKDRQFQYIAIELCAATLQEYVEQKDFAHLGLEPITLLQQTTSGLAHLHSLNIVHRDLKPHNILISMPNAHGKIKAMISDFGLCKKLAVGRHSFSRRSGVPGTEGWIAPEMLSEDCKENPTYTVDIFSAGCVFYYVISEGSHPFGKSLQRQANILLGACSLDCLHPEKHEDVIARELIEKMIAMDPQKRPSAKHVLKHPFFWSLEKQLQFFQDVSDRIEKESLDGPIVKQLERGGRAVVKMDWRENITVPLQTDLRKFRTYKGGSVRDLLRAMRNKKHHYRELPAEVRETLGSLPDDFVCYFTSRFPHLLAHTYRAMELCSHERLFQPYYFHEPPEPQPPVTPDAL
UniProt P22607, whole entry, looked up: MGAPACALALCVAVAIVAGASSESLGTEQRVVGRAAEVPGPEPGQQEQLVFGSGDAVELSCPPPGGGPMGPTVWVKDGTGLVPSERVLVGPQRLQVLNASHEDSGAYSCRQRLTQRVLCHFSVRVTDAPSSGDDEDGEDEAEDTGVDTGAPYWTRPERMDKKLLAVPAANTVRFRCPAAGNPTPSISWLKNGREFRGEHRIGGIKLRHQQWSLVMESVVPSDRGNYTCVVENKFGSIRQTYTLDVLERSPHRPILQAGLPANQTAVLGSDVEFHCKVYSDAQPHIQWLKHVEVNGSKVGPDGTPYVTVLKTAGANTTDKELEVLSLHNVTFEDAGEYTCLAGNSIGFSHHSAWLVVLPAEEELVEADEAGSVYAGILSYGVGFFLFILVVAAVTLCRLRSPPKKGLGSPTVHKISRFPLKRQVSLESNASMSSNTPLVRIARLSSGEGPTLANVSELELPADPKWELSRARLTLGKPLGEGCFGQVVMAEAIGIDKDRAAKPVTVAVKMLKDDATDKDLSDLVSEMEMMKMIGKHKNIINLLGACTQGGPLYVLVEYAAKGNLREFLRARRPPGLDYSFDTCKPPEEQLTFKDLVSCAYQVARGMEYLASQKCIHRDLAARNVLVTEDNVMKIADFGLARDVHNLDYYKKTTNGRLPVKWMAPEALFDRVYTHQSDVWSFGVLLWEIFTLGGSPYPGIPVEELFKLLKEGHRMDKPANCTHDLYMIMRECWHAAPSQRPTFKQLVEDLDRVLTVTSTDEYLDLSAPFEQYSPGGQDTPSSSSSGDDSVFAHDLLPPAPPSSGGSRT
UniProt P06241, whole entry, looked up: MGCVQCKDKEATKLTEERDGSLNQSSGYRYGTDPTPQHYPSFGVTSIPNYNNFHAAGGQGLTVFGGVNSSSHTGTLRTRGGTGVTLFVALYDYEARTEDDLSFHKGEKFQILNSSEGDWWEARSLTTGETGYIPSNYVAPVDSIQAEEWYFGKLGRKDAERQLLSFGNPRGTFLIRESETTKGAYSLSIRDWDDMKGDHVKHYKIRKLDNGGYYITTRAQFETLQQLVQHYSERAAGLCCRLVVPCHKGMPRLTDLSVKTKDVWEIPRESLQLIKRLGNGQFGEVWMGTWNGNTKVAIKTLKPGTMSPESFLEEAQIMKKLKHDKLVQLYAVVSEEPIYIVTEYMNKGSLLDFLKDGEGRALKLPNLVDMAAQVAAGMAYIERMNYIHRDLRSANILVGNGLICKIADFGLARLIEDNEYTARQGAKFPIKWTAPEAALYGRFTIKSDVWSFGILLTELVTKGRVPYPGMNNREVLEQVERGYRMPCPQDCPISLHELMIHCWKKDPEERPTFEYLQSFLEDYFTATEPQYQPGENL
UniProt P14616: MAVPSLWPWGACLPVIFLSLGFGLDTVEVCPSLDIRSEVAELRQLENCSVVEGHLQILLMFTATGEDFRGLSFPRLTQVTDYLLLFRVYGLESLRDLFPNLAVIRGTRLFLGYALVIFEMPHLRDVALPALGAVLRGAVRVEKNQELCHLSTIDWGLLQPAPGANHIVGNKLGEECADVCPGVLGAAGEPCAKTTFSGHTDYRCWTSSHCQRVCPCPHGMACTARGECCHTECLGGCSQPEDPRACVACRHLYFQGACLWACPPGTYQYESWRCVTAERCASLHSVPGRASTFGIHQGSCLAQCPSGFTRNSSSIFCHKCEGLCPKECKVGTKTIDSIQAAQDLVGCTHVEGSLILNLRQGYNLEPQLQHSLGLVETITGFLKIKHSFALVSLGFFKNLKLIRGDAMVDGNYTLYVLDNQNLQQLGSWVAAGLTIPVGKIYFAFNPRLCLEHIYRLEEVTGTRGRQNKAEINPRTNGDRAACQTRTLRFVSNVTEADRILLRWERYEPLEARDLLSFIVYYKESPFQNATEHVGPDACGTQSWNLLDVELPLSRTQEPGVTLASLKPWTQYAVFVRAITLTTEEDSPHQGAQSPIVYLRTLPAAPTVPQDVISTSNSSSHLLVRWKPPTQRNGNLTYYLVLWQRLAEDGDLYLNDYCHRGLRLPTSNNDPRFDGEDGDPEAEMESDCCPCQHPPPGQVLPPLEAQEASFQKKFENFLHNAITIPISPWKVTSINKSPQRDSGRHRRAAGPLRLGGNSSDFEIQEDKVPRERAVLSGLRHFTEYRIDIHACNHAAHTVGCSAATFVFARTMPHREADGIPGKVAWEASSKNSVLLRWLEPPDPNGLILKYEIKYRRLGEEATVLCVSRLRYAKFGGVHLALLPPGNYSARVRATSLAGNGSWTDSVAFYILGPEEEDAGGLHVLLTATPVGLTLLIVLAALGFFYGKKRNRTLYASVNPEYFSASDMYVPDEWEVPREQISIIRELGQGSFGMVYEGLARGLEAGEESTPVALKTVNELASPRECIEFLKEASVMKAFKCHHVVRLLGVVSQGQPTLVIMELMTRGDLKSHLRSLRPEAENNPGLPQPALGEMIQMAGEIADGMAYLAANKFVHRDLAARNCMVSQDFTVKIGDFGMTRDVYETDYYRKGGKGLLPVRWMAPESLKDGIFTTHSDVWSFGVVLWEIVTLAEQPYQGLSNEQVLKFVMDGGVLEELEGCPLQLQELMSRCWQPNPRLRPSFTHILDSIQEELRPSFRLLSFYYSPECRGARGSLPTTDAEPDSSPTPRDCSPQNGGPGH
UniProt P53671: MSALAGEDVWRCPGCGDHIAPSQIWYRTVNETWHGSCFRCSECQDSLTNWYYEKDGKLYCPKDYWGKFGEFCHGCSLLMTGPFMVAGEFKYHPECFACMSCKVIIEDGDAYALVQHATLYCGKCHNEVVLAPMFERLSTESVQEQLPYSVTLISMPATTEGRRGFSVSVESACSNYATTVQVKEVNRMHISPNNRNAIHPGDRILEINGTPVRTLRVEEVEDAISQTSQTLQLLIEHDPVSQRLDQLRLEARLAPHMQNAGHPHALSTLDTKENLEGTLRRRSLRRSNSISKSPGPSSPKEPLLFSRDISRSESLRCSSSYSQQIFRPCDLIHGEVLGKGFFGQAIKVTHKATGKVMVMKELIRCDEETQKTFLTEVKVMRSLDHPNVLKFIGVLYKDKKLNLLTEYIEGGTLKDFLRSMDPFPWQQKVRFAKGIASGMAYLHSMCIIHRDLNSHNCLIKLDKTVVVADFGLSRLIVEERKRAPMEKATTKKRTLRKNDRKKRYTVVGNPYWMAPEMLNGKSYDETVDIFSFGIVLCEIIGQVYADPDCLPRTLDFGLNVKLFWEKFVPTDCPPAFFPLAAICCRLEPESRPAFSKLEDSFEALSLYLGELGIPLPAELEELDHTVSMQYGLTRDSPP
UniProt Q8IWU2: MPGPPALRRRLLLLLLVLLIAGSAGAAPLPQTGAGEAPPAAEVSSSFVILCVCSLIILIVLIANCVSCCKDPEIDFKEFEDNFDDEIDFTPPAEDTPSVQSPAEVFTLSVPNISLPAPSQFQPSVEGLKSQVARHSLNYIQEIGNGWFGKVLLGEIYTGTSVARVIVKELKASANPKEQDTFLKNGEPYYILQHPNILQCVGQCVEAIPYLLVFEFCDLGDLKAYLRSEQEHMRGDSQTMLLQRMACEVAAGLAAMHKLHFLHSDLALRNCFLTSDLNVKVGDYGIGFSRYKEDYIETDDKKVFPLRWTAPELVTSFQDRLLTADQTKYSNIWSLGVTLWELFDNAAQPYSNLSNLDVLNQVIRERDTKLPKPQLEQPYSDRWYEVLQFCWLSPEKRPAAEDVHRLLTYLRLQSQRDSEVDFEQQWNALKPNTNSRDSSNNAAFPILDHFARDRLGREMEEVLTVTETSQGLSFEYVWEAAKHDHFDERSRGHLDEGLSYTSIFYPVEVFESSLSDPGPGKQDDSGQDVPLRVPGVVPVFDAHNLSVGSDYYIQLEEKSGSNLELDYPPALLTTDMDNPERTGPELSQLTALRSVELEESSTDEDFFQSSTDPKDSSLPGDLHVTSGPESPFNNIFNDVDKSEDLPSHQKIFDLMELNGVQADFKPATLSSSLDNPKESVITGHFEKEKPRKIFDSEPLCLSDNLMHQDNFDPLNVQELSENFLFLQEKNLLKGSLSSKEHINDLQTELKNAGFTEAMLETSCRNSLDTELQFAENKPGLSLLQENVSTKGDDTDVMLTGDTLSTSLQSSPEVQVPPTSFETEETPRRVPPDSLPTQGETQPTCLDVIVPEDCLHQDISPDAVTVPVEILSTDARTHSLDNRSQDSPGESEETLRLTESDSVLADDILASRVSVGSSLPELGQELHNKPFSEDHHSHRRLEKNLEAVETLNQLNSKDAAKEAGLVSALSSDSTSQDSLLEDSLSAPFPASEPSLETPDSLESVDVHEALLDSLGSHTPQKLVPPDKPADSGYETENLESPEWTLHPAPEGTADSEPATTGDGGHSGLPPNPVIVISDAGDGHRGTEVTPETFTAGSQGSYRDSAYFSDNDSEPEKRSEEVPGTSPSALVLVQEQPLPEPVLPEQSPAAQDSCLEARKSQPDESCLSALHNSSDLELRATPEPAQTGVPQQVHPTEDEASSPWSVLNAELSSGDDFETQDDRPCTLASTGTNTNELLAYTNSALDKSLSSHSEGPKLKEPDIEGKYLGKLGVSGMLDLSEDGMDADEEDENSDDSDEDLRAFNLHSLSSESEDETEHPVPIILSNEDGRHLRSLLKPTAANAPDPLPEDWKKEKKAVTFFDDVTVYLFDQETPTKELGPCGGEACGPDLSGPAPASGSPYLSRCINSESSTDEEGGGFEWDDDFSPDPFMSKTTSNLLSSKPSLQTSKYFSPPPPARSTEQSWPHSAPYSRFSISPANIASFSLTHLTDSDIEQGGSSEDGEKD
UniProt Q12851: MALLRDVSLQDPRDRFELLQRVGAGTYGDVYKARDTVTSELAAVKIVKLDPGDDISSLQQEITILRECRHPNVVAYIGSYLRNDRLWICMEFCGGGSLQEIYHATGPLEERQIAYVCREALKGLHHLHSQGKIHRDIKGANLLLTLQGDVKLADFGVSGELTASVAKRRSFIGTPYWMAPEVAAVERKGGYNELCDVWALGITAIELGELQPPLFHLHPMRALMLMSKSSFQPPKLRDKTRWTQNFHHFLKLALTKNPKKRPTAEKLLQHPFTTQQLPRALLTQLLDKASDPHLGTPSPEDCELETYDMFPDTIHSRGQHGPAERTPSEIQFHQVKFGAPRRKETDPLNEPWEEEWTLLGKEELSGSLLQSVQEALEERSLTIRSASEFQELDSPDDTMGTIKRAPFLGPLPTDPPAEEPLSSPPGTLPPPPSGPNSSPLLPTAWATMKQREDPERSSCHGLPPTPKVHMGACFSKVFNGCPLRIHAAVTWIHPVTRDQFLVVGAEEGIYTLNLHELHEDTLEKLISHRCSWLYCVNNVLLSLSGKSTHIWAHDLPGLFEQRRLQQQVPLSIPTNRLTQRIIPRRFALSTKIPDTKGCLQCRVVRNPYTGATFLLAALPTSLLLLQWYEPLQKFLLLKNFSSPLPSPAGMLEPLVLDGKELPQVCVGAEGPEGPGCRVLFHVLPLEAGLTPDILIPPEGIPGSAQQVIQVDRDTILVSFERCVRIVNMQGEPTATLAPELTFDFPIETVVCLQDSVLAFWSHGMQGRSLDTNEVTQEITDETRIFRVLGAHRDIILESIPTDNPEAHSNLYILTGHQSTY

Assays:
Assay in all cases: kinase-Nluc reporter destabilization hit call (1 = scored as downregulated) (binary); higher = compound decreases kinase abundance
Details in all cases: K562, 2-18 h
ERN1 = ERN1 (UniProt O75460)
FGFR1 = FGFR1 (UniProt P11362)
FGFR2 = FGFR2 (UniProt P21802)
FGFR3 = FGFR3 (UniProt P22607)
FGR = FGR (UniProt P09769)
FLT3 = FLT3 (UniProt P36888)
FYN = FYN (UniProt P06241)
GSK3A = GSK3A (UniProt P49840)
HER2 = HER2 (UniProt P04626)
INSRR = INSRR (UniProt P14616)
IRAK3 = IRAK3 (UniProt Q9Y616)
JAK1 = JAK1 (UniProt P23458)
LCK = LCK (UniProt P06239)
LIMK1 = LIMK1 (UniProt P53667)
LIMK2 = LIMK2 (UniProt P53671)
LMTK2 = LMTK2 (UniProt Q8IWU2)
LYN = LYN (UniProt P07948)
MAP2K1 = MAP2K1 (UniProt Q02750)
MAP2K2 = MAP2K2 (UniProt P36507)
MAP4K2 = MAP4K2 (UniProt Q12851)

Measured: kinase-Nluc reporter destabilization hit call

C=CC(=O)Nc1cc(Nc2nccc(-c3cn(C)c4ccccc34)n2)c(OC)cc1N(C)CCN(C)C [Osimertinib mesylate]
inactive: ERN1; 2.5 µM 0 | FGFR1; 2.5 µM 0 | FGFR2; 2.5 µM 0 | FGFR3; 2.5 µM 0 | FGR; 2.5 µM 0 | FLT3; 2.5 µM 0 | FYN; 2.5 µM 0 | GSK3A; 2.5 µM 0 | INSRR; 2.5 µM 0 | IRAK3; 2.5 µM 0 | JAK1; 2.5 µM 0 | LCK; 2.5 µM 0 | LIMK1; 2.5 µM 0 | LIMK2; 2.5 µM 0 | LMTK2; 2.5 µM 0 | LYN; 2.5 µM 0 | MAP2K1; 2.5 µM 0 | MAP2K2; 2.5 µM 0 | MAP4K2; 2.5 µM 0
active: HER2; 2.5 µM 1

CC(C)(C)n1nc(-c2cccc3ccccc23)c2c(N)ncnc21 [1-Naphthyl PP1]
inactive: ERN1; 10 µM 0 | FGFR1; 10 µM 0 | FGFR2; 10 µM 0 | FGFR3; 10 µM 0 | FGR; 10 µM 0 | FLT3; 10 µM 0 | FYN; 10 µM 0 | GSK3A; 10 µM 0 | HER2; 10 µM 0 | INSRR; 10 µM 0 | IRAK3; 10 µM 0 | JAK1; 10 µM 0 | LIMK1; 10 µM 0 | LIMK2; 10 µM 0 | LMTK2; 10 µM 0 | LYN; 10 µM 0 | MAP2K1; 10 µM 0 | MAP2K2; 10 µM 0 | MAP4K2; 10 µM 0

C/C=C1\C(=O)C[C@H]2[C@@H]3CCC4=CC(=O)CC[C@]4(C)[C@H]3CC[C@]12C [Guggulsterone]
inactive: ERN1; 10 µM 0 | FGFR1; 10 µM 0 | FGFR2; 10 µM 0 | FGR; 10 µM 0 | FLT3; 10 µM 0 | FYN; 10 µM 0 | GSK3A; 10 µM 0 | HER2; 10 µM 0 | INSRR; 10 µM 0 | IRAK3; 10 µM 0 | JAK1; 10 µM 0 | LCK; 10 µM 0 | LIMK1; 10 µM 0 | LIMK2; 10 µM 0 | LMTK2; 10 µM 0 | LYN; 10 µM 0 | MAP2K1; 10 µM 0 | MAP2K2; 10 µM 0 | MAP4K2; 10 µM 0

CCCCCCCCc1ccc(CCC(N)(CO)CO)cc1 [Fingolimod]
inactive: ERN1; 2.5 µM 0 | FGFR1; 2.5 µM 0 | FGFR2; 2.5 µM 0 | FGFR3; 2.5 µM 0 | FGR; 2.5 µM 0 | FLT3; 2.5 µM 0 | FYN; 2.5 µM 0 | GSK3A; 2.5 µM 0 | HER2; 2.5 µM 0 | INSRR; 2.5 µM 0 | IRAK3; 2.5 µM 0 | JAK1; 2.5 µM 0 | LCK; 2.5 µM 0 | LIMK1; 2.5 µM 0 | LIMK2; 2.5 µM 0 | LMTK2; 2.5 µM 0 | LYN; 2.5 µM 0 | MAP2K1; 2.5 µM 0 | MAP2K2; 2.5 µM 0 | MAP4K2; 2.5 µM 0

Quoted at random: two records from the list.
C/C=C1\C(=O)C[C@H]2[C@@H]3CCC4=CC(=O)CC[C@]4(C)[C@H]3CC[C@]12C [Guggulsterone]
inactive: ERN1; 10 µM 0 | FGFR1; 10 µM 0 | FGFR2; 10 µM 0 | FGR; 10 µM 0 | FLT3; 10 µM 0 | FYN; 10 µM 0 | GSK3A; 10 µM 0 | HER2; 10 µM 0 | INSRR; 10 µM 0 | IRAK3; 10 µM 0 | JAK1; 10 µM 0 | LCK; 10 µM 0 | LIMK1; 10 µM 0 | LIMK2; 10 µM 0 | LMTK2; 10 µM 0 | LYN; 10 µM 0 | MAP2K1; 10 µM 0 | MAP2K2; 10 µM 0 | MAP4K2; 10 µM 0

C=CC(=O)Nc1cc(Nc2nccc(-c3cn(C)c4ccccc34)n2)c(OC)cc1N(C)CCN(C)C [Osimertinib mesylate]
inactive: ERN1; 2.5 µM 0 | FGFR1; 2.5 µM 0 | FGFR2; 2.5 µM 0 | FGFR3; 2.5 µM 0 | FGR; 2.5 µM 0 | FLT3; 2.5 µM 0 | FYN; 2.5 µM 0 | GSK3A; 2.5 µM 0 | INSRR; 2.5 µM 0 | IRAK3; 2.5 µM 0 | JAK1; 2.5 µM 0 | LCK; 2.5 µM 0 | LIMK1; 2.5 µM 0 | LIMK2; 2.5 µM 0 | LMTK2; 2.5 µM 0 | LYN; 2.5 µM 0 | MAP2K1; 2.5 µM 0 | MAP2K2; 2.5 µM 0 | MAP4K2; 2.5 µM 0
active: HER2; 2.5 µM 1

(listing goes on)

Cc1[nH]c(/C=C2\C(=O)Nc3ccc(F)cc32)c(C)c1C(=O)NCCN1CCCC1 [Toceranib (phosphate)]
inactive: ERN1; 2 µM 0 | FGFR1; 2 µM 0 | FGFR2; 2 µM 0 | FGFR3; 2 µM 0 | FGR; 2 µM 0 | FLT3; 2 µM 0 | FYN; 2 µM 0 | GSK3A; 2 µM 0 | HER2; 2 µM 0 | INSRR; 2 µM 0 | IRAK3; 2 µM 0 | JAK1; 2 µM 0 | LCK; 2 µM 0 | LIMK1; 2 µM 0 | LIMK2; 2 µM 0 | LMTK2; 2 µM 0 | LYN; 2 µM 0 | MAP2K1; 2 µM 0 | MAP2K2; 2 µM 0 | MAP4K2; 2 µM 0

COc1ccc(S(=O)(=O)N(CCO)c2ccccc2CN(C)C/C=C/c2ccc(Cl)cc2)cc1 [KN-93 (phosphate)]
inactive: ERN1; 2.5 µM 0 | FGFR1; 2.5 µM 0 | FGFR2; 2.5 µM 0 | FGFR3; 2.5 µM 0 | FGR; 2.5 µM 0 | FLT3; 2.5 µM 0 | FYN; 2.5 µM 0 | GSK3A; 2.5 µM 0 | HER2; 2.5 µM 0 | INSRR; 2.5 µM 0 | IRAK3; 2.5 µM 0 | JAK1; 2.5 µM 0 | LCK; 2.5 µM 0 | LIMK1; 2.5 µM 0 | LIMK2; 2.5 µM 0 | LMTK2; 2.5 µM 0 | LYN; 2.5 µM 0 | MAP2K1; 2.5 µM 0 | MAP2K2; 2.5 µM 0 | MAP4K2; 2.5 µM 0

CCS(=O)(=O)N1CC(CC#N)(n2cc(-c3ncnc4[nH]ccc34)cn2)C1 [Baricitinib]
inactive: ERN1; 10 µM 0 | FGFR1; 10 µM 0 | FGFR2; 10 µM 0 | FGFR3; 10 µM 0 | FGR; 10 µM 0 | FLT3; 10 µM 0 | FYN; 10 µM 0 | GSK3A; 10 µM 0 | HER2; 10 µM 0 | INSRR; 10 µM 0 | IRAK3; 10 µM 0 | LCK; 10 µM 0 | LIMK1; 10 µM 0 | LIMK2; 10 µM 0 | LMTK2; 10 µM 0 | LYN; 10 µM 0 | MAP2K1; 10 µM 0 | MAP2K2; 10 µM 0 | MAP4K2; 10 µM 0

CC(=O)Nc1cccc(-n2c(=O)n(C3CC3)c(=O)c3c(Nc4ccc(I)cc4F)n(C)c(=O)c(C)c32)c1 [Trametinib (DMSO solvate)]
inactive: ERN1; 10 µM 0 | FGFR1; 10 µM 0 | FGFR2; 10 µM 0 | FGFR3; 10 µM 0 | FGR; 10 µM 0 | FLT3; 10 µM 0 | FYN; 10 µM 0 | GSK3A; 10 µM 0 | HER2; 10 µM 0 | INSRR; 10 µM 0 | IRAK3; 10 µM 0 | JAK1; 10 µM 0 | LCK; 10 µM 0 | LIMK1; 10 µM 0 | LIMK2; 10 µM 0 | LMTK2; 10 µM 0 | LYN; 10 µM 0 | MAP2K1; 10 µM 0 | MAP2K2; 10 µM 0 | MAP4K2; 10 µM 0

C[C@@H](N)[C@H]1CC[C@H](C(=O)Nc2ccncc2)CC1
inactive: ERN1; 10 µM 0 | FGFR1; 10 µM 0 | FGFR2; 10 µM 0 | FGFR3; 10 µM 0 | FGR; 10 µM 0 | FLT3; 10 µM 0 | FYN; 10 µM 0 | GSK3A; 10 µM 0 | HER2; 10 µM 0 | INSRR; 10 µM 0 | IRAK3; 10 µM 0 | JAK1; 10 µM 0 | LIMK1; 10 µM 0 | LIMK2; 10 µM 0 | LMTK2; 10 µM 0 | LYN; 10 µM 0 | MAP2K1; 10 µM 0 | MAP2K2; 10 µM 0 | MAP4K2; 10 µM 0

Cc1[nH]c(/C=C2\C(=O)Nc3ccc(F)cc32)c(C)c1C(=O)NCCN1CCCC1 [Toceranib]
inactive: ERN1; 2 µM 0 | FGFR1; 2 µM 0 | FGFR2; 2 µM 0 | FGFR3; 2 µM 0 | FGR; 2 µM 0 | FLT3; 2 µM 0 | FYN; 2 µM 0 | GSK3A; 2 µM 0 | HER2; 2 µM 0 | INSRR; 2 µM 0 | IRAK3; 2 µM 0 | JAK1; 2 µM 0 | LCK; 2 µM 0 | LIMK1; 2 µM 0 | LIMK2; 2 µM 0 | LMTK2; 2 µM 0 | LYN; 2 µM 0 | MAP2K1; 2 µM 0 | MAP2K2; 2 µM 0 | MAP4K2; 2 µM 0

CC(=O)c1c(C)c2cnc(Nc3ccc(N4CCNCC4)cn3)nc2n(C2CCCC2)c1=O [Palbociclib (isethionate)]
inactive: ERN1; 10 µM 0 | FGFR1; 10 µM 0 | FGFR2; 10 µM 0 | FGFR3; 10 µM 0 | FGR; 10 µM 0 | FLT3; 10 µM 0 | FYN; 10 µM 0 | GSK3A; 10 µM 0 | HER2; 10 µM 0 | INSRR; 10 µM 0 | IRAK3; 10 µM 0 | JAK1; 10 µM 0 | LIMK1; 10 µM 0 | LIMK2; 10 µM 0 | LMTK2; 10 µM 0 | LYN; 10 µM 0 | MAP2K1; 10 µM 0 | MAP2K2; 10 µM 0 | MAP4K2; 10 µM 0

CN1CCCN(C(=O)c2cccc(-c3ccc(/C=C4/C(=O)Nc5ccc(Cl)cc54)o3)c2)CC1 [CX-6258 (hydrochloride)]
inactive: ERN1; 2.5 µM 0 | FGFR1; 2.5 µM 0 | FGFR2; 2.5 µM 0 | FGFR3; 2.5 µM 0 | FGR; 2.5 µM 0 | FLT3; 2.5 µM 0 | FYN; 2.5 µM 0 | GSK3A; 2.5 µM 0 | HER2; 2.5 µM 0 | INSRR; 2.5 µM 0 | IRAK3; 2.5 µM 0 | JAK1; 2.5 µM 0 | LCK; 2.5 µM 0 | LIMK1; 2.5 µM 0 | LIMK2; 2.5 µM 0 | LMTK2; 2.5 µM 0 | LYN; 2.5 µM 0 | MAP2K1; 2.5 µM 0 | MAP2K2; 2.5 µM 0 | MAP4K2; 2.5 µM 0

C#Cc1cccc(Nc2ncnc3cc(OCCOC)c(OCCO)cc23)c1 [Desmethyl Erlotinib (hydrochloride)]
active: HER2; 10 µM 1
inactive: ERN1; 10 µM 0 | FGFR1; 10 µM 0 | FGFR2; 10 µM 0 | FGFR3; 10 µM 0 | FGR; 10 µM 0 | FLT3; 10 µM 0 | FYN; 10 µM 0 | GSK3A; 10 µM 0 | INSRR; 10 µM 0 | IRAK3; 10 µM 0 | JAK1; 10 µM 0 | LCK; 10 µM 0 | LIMK1; 10 µM 0 | LIMK2; 10 µM 0 | LMTK2; 10 µM 0 | LYN; 10 µM 0 | MAP2K1; 10 µM 0 | MAP2K2; 10 µM 0 | MAP4K2; 10 µM 0
